Data reported in patent US20190071674.
A weaker result is weaker than the reference pair of the same experiment. Where a protein sequence is shown, tags need not be part of it. For part of these data: Where cells or extracts were used, other partners may take part. For part of these data: Negatives hold for the conditions tested.

How the values were obtained:
[1] = biological target: T1, MISIIR (AMHR2) extracellular domain (UniProt Q16671); experiment: pull-down; details: purified recombinant protein
T1 sequence (looked up, limits assumed): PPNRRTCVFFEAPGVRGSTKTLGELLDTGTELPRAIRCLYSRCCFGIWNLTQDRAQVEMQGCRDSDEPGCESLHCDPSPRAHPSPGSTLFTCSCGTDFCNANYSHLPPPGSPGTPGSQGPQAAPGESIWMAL

[2] = biological target: T2, MISIIR (AMHR2) on ovarian cancer cells (Homo sapiens) (UniProt Q16671); experiment: binding assay; details: protein on the cell surface
T2 sequence (looked up, limits assumed): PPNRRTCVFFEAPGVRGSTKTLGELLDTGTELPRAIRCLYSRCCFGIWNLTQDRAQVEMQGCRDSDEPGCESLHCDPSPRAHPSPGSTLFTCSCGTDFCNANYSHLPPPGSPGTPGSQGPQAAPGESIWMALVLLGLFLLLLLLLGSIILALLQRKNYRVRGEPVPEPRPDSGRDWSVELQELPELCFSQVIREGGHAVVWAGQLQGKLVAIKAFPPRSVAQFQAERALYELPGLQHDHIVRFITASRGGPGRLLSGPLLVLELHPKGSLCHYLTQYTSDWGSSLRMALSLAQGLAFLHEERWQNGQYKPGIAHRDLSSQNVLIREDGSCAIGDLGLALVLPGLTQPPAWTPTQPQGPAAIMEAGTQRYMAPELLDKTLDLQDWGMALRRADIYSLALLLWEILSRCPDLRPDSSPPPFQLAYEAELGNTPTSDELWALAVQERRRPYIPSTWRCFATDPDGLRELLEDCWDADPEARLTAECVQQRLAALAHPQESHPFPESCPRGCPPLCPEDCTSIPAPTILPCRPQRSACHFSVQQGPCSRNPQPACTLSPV

“GGGAGGACGAUGCGGCCAUACCGUGAAGCCUUGGCUGCAUCGGGAUUUUGGUCGGCAGACGACUCGCCCGA [Aptamer 3]”: binds more weakly ([1]; 2'-F pyrimidines (library chemistry), lower affinity than Aptamers 1 and 2, higher than Aptamer 8, no value in text, label: 32P (gamma-32P)); binds more weakly ([2]; 2'-F pyrimidines (library chemistry), 32P cell binding, 37 C 30 min, lower than Aptamers 1 and 2 on IGROV-1 and OVCAR-8, above Aptamer 8 on IGROV-1, label: 32P (gamma-32P)).
“GGGAGGACGAUGCGGCGCGAAAGCCGAUUGGUGUGUCGUCUAUUAUCGUGUCGGGCAGACGACUCGCCCGA [Aptamer 1 (M1)]”: binds ([2]; 2'-F pyrimidines (library chemistry), 32P cell binding, 37 C 30 min, high affinity on IGROV-1 and OVCAR-8, lower than Aptamer 2 on OVCA433, confocal binding and endocytosis in OVCAR-8, label: 32P (gamma-32P) or fluorophore for confocal).
“GGGAGGACGAUGCGGCGUGUACGAGCCCAAUAGGGAUGUUAGACUACACGCGGGGCAGACGACUCGCCCGA [Aptamer 8 (aptRan, control)]”: binds more weakly ([1]; control, lower affinity than Aptamers 1, 2 and 3, SEQ 77 printed with 5' T7 promoter sequence, label: 32P (gamma-32P) or fluorophore for confocal); no binding ([2]; control, lowest binding on IGROV-1, no appreciable binding to OVCAR-8 by confocal, label: 32P (gamma-32P) or fluorophore for confocal).
“GGGAGGACGAUGCGGGAAGCACGUCCCGAGGUAUAUGUUUCGUAGUCGCUGUGGGCAGACGACUCGCCCGA [Aptamer 2 (M2)]”: binds ([2]; 2'-F pyrimidines (library chemistry), 32P cell binding, 37 C 30 min, high affinity on IGROV-1, OVCAR-8 and OVCA433, confocal binding and endocytosis in OVCAR-8, label: 32P (gamma-32P) or fluorophore for confocal).
